# Measurements as given in the supplement of paper PMC12823440, “Inhibitors supercharge kinase turnover through native proteolytic circuits” (Nature, 2025).
# By UniProt entry, the sequences of proteins in these tests, tags left out. Where a name states a change or a piece, a line headed by the entry shows the natural chain unless it says otherwise.
# UniProt P50613: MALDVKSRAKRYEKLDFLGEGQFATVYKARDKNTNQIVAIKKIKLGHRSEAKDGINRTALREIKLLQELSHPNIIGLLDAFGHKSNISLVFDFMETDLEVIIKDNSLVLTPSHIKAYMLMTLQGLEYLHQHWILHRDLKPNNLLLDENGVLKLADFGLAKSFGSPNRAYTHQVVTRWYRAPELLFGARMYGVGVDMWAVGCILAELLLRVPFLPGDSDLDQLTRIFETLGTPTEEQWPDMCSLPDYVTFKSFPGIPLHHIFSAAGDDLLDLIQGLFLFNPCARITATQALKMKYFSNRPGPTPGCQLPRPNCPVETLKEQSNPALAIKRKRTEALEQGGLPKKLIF
# UniProt P50750, whole entry: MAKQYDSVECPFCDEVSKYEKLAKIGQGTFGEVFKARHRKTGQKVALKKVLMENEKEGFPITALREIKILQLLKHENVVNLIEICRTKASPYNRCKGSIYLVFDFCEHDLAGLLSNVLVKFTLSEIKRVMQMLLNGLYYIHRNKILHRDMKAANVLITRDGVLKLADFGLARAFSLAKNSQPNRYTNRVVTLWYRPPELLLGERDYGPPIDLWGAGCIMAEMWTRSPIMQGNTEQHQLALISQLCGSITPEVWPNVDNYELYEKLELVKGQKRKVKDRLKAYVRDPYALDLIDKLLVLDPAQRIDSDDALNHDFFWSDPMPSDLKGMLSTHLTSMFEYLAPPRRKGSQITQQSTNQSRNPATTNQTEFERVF
# UniProt O96017, whole entry: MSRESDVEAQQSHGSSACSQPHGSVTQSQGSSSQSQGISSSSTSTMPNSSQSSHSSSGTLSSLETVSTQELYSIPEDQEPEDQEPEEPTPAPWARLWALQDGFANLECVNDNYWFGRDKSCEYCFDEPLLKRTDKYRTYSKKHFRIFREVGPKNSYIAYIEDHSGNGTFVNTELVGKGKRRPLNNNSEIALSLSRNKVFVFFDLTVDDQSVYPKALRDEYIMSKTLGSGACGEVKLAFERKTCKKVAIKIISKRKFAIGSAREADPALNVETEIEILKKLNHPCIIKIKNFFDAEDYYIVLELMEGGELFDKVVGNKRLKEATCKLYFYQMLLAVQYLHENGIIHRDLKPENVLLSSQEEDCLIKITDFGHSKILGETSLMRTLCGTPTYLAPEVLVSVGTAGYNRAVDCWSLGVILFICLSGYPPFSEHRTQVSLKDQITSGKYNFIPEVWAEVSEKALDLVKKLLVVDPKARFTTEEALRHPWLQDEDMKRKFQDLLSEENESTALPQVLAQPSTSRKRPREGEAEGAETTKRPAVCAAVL
# UniProt P07333, whole entry: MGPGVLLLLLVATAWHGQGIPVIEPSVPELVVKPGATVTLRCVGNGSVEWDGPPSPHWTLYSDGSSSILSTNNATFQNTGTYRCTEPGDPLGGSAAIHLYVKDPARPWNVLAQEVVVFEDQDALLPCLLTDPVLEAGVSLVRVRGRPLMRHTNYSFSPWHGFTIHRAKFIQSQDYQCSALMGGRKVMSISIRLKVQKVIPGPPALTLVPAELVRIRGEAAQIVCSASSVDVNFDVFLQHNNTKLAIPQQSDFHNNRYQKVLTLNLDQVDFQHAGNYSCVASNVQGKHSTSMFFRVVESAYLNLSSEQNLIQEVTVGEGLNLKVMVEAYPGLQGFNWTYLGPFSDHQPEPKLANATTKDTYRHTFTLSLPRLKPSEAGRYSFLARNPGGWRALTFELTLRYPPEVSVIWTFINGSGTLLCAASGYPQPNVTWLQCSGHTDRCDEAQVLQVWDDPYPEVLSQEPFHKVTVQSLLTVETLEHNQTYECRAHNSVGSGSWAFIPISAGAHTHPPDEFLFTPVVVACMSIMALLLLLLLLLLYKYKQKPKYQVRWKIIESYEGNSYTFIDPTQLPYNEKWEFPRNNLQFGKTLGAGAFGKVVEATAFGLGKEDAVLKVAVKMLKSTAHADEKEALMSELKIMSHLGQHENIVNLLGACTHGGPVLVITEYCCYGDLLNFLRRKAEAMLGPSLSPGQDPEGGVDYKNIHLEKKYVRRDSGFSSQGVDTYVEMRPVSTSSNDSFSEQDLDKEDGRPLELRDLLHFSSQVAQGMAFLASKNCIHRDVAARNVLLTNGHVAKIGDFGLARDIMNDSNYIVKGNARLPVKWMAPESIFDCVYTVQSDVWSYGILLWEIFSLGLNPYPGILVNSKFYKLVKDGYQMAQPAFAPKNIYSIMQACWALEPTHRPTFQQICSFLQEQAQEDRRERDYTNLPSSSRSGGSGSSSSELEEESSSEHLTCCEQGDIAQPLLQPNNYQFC
# UniProt P41240: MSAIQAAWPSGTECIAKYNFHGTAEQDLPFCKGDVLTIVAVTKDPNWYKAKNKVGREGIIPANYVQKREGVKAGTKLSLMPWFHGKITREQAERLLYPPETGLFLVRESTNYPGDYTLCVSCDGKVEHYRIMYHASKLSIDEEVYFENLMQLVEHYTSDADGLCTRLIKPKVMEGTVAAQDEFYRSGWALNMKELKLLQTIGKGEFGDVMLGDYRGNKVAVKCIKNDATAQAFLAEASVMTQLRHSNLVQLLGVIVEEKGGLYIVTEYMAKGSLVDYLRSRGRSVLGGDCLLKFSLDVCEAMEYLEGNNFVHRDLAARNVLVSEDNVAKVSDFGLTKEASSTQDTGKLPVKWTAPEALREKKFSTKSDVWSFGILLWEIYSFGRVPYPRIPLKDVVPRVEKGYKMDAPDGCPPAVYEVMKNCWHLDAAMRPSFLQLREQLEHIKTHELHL
# UniProt P48729: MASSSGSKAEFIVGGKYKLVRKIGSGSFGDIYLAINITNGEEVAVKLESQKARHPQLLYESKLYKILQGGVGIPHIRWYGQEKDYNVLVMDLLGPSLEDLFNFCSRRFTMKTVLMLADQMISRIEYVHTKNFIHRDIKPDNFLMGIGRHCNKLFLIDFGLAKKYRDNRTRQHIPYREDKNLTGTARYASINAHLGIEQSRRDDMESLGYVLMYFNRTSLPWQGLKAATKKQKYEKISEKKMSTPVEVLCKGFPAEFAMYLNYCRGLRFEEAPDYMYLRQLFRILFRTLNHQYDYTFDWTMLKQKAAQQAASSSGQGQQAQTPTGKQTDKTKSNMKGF
# UniProt P48730: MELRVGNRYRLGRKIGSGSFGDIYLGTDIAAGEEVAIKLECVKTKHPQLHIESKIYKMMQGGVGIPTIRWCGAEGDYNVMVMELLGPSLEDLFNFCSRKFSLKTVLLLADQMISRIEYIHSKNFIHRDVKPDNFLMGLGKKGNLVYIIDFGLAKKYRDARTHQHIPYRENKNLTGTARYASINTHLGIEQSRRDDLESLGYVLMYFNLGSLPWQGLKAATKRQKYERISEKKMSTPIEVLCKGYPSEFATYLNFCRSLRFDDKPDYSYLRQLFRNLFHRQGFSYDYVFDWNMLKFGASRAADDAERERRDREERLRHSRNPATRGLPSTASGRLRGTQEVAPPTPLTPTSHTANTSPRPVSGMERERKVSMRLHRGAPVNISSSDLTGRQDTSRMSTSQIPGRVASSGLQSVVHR
# UniProt Q08345: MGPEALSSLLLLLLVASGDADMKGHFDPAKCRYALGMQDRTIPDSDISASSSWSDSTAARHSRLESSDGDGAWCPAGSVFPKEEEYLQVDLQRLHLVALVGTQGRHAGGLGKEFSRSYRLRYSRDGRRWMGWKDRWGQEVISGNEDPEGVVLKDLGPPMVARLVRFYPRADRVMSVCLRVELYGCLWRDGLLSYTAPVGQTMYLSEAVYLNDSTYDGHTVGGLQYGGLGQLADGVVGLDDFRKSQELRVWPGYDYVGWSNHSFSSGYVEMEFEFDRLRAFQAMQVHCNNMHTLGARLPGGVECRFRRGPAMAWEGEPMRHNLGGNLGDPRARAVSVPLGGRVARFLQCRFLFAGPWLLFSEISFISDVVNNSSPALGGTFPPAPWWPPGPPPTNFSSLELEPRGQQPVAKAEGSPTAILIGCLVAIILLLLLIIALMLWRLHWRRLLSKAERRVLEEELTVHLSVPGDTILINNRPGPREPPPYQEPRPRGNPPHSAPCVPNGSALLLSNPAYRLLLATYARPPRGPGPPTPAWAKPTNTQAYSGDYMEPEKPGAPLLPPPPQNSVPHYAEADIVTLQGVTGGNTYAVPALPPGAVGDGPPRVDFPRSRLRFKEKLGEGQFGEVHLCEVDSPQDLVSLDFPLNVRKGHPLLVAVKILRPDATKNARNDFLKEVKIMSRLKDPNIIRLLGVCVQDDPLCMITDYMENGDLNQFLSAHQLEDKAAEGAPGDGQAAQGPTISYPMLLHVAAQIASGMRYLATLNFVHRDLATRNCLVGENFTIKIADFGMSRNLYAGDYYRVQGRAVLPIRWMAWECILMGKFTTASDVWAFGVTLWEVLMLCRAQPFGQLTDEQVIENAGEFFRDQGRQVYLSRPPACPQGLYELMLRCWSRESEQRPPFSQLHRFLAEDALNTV
# UniProt Q9Y463, whole entry, looked up: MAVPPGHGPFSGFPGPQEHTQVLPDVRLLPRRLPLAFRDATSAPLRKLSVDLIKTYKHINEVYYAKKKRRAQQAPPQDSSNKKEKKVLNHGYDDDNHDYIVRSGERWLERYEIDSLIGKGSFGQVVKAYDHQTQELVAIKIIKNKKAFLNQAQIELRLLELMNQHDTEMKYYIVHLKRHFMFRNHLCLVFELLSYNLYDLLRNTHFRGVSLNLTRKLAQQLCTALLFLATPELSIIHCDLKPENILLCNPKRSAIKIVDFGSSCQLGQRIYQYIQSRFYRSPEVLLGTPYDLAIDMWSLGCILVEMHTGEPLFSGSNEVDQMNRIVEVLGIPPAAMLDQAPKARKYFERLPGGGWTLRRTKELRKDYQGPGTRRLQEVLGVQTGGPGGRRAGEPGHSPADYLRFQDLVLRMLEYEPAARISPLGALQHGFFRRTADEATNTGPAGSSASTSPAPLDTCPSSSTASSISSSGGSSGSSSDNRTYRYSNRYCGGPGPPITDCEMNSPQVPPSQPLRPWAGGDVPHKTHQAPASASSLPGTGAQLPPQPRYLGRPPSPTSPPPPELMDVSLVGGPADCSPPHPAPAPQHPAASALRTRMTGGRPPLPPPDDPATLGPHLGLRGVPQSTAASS
# UniProt Q92630: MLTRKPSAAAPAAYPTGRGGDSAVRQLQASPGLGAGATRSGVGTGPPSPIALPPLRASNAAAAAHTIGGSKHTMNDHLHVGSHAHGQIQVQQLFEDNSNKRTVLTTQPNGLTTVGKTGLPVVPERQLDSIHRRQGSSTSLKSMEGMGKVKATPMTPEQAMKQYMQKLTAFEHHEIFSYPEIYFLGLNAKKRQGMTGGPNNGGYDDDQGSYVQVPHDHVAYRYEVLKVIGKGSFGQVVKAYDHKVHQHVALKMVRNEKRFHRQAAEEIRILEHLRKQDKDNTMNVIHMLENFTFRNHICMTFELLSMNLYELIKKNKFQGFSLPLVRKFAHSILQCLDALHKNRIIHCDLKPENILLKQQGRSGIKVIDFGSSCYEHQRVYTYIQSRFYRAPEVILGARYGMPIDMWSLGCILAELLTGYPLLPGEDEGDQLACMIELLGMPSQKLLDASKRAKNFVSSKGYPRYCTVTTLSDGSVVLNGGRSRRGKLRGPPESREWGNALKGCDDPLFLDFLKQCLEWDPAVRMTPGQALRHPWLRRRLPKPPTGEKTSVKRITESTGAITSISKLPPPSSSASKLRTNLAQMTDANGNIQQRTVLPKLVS
# UniProt P29317, whole entry: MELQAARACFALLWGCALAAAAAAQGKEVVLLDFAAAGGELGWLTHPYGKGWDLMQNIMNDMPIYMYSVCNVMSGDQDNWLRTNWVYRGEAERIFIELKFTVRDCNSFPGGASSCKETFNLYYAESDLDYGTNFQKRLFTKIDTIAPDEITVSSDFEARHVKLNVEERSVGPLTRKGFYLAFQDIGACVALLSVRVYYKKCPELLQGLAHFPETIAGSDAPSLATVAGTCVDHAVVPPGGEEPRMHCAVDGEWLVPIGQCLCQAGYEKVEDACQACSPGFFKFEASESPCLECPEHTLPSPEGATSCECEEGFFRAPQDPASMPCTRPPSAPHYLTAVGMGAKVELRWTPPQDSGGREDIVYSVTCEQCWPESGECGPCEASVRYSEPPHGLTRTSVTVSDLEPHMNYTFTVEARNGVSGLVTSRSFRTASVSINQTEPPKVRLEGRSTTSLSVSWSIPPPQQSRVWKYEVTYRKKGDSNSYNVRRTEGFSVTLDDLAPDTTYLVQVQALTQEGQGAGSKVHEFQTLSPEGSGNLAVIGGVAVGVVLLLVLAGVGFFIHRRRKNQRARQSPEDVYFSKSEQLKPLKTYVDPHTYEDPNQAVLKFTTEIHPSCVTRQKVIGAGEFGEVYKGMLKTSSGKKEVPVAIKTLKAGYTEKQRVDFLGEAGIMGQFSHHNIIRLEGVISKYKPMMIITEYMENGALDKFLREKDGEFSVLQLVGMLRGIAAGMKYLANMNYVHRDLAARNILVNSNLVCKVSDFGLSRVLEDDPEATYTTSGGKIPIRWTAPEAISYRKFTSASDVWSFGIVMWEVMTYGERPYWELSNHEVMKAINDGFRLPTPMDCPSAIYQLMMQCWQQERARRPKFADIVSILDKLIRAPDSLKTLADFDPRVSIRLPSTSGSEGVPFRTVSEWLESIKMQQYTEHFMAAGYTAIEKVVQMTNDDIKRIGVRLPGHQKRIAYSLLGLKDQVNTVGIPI
# Where a name gives a salt, the structure may show the parent alone. This is one part of the list. Hit calls seldom repeat between salt and free forms of one compound.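 In K562 cells expressing nanoluciferase-fused kinases, luminescence was recorded at 4 h intervals between 2 and 18 h, normalized as percent of control with DMSO at 100% and a positive control at 0%. A significant (2 sigma) signal drop marks a time point as decreased. The authors' rule for a hit is not shown and takes in more than the number of time points.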
# Tests used:
# Assay in all cases: kinase-Nluc reporter destabilization hit call (1 = scored as downregulated) (binary); higher = compound decreases kinase abundance
# Settings in all cases: K562; 2-18 h
# CDK7 = CDK7 (UniProt P50613)
# CDK9 = CDK9 (UniProt P50750)
# CHEK2 = CHEK2 (UniProt O96017)
# CSF1R = CSF1R (UniProt P07333)
# CSK = CSK (UniProt P41240)
# CSNK1A1 = CSNK1A1 (UniProt P48729)
# CSNK1D = CSNK1D (UniProt P48730)
# DDR1 = DDR1 (UniProt Q08345)
# DYRK1B = DYRK1B (UniProt Q9Y463)
# DYRK2 = DYRK2 (UniProt Q92630)
# EGFR = EGFR (UniProt P00533)
# EGFR_G719S = EGFR_G719S (UniProt P00533)
# EGFR_G719S_T790M = EGFR_G719S_T790M (UniProt P00533)
# EGFR_L718V = EGFR_L718V (UniProt P00533)
# EGFR_L858R = EGFR_L858R (UniProt P00533)
# EGFR_L861Q = EGFR_L861Q (UniProt P00533)
# EGFR_T790M = EGFR_T790M (UniProt P00533)
# EPHA2 = EPHA2 (UniProt P29317)
# ERBB3 = ERBB3 (UniProt P21860)
# [1] = molecular target: ERBB4_R711C (clone: ERBB4_mut) (UniProt Q15303)
Compound,kinase-Nluc reporter destabilization hit call (CDK7),kinase-Nluc reporter destabilization hit call (CDK9),kinase-Nluc reporter destabilization hit call (CHEK2),kinase-Nluc reporter destabilization hit call (CSF1R),kinase-Nluc reporter destabilization hit call (CSK),kinase-Nluc reporter destabilization hit call (CSNK1A1),kinase-Nluc reporter destabilization hit call (CSNK1D),kinase-Nluc reporter destabilization hit call (DDR1),kinase-Nluc reporter destabilization hit call (DYRK1B),kinase-Nluc reporter destabilization hit call (DYRK2),kinase-Nluc reporter destabilization hit call (EGFR),kinase-Nluc reporter destabilization hit call (EGFR_G719S),kinase-Nluc reporter destabilization hit call (EGFR_G719S_T790M),kinase-Nluc reporter destabilization hit call (EGFR_L718V),kinase-Nluc reporter destabilization hit call (EGFR_L858R),kinase-Nluc reporter destabilization hit call (EGFR_L861Q),kinase-Nluc reporter destabilization hit call (EGFR_T790M),kinase-Nluc reporter destabilization hit call (EPHA2),kinase-Nluc reporter destabilization hit call (ERBB3),kinase-Nluc reporter destabilization hit call [1]
O=CN1CCN(c2ccc(C=C3C(=O)Nc4ccccc43)cc2)CC1 (10 µM),inactive: 0,inactive: 0,inactive: 0,inactive: 0,inactive: 0,inactive: 0,inactive: 0,inactive: 0,inactive: 0,inactive: 0,inactive: 0,inactive: 0,inactive: 0,inactive: 0,inactive: 0,inactive: 0,inactive: 0,inactive: 0,inactive: 0,inactive: 0
Cc1ccc(NC(=O)N2CCN(c3nc(N)nc4sc(-c5cccnc5)nc34)CC2)cc1 [PI4KIII beta inhibitor 3] (10 µM),inactive: 0,inactive: 0,inactive: 0,inactive: 0,inactive: 0,inactive: 0,inactive: 0,inactive: 0,inactive: 0,inactive: 0,inactive: 0,inactive: 0,inactive: 0,inactive: 0,inactive: 0,inactive: 0,inactive: 0,inactive: 0,inactive: 0,inactive: 0
C=CC(=O)Nc1cc(Nc2nccc(-c3cn(C)c4ccccc34)n2)c(OCC(F)(F)F)nc1N(C)CCNC [AST5902  (trimesylate)] (2.5 µM),inactive: 0,inactive: 0,inactive: 0,inactive: 0,inactive: 0,inactive: 0,inactive: 0,inactive: 0,inactive: 0,inactive: 0,inactive: 0,inactive: 0,inactive: 0,inactive: 0,inactive: 0,inactive: 0,inactive: 0,inactive: 0,inactive: 0,inactive: 0
Cc1ccc(C2CC(=O)NC(SCC(=O)Nc3nccs3)=C2C#N)cc1 (stereo not given) [Necrostatin-34] (10 µM),inactive: 0,inactive: 0,inactive: 0,inactive: 0,inactive: 0,inactive: 0,inactive: 0,inactive: 0,inactive: 0,inactive: 0,inactive: 0,inactive: 0,inactive: 0,inactive: 0,inactive: 0,inactive: 0,inactive: 0,inactive: 0,inactive: 0,inactive: 0
O=C1C=CC2=C3c4cc(O)c(O)cc4CC3(O)COC2=C1O (stereo not given) [Hematein] (10 µM),inactive: 0,inactive: 0,inactive: 0,inactive: 0,inactive: 0,inactive: 0,inactive: 0,inactive: 0,inactive: 0,inactive: 0,inactive: 0,inactive: 0,inactive: 0,inactive: 0,inactive: 0,inactive: 0,inactive: 0,inactive: 0,inactive: 0,inactive: 0
Cn1c(N2CCO[C@@H](c3ccc(F)cc3)C2)nc(-c2ccncn2)cc1=O (10 µM),inactive: 0,inactive: 0,inactive: 0,inactive: 0,inactive: 0,inactive: 0,inactive: 0,inactive: 0,inactive: 0,inactive: 0,inactive: 0,inactive: 0,inactive: 0,inactive: 0,inactive: 0,inactive: 0,inactive: 0,inactive: 0,inactive: 0,inactive: 0
CN(C)c1cc[n+](Cc2ccc(OCCOc3ccc(C[n+]4ccc(N(C)C)cc4)cc3)cc2)cc1 (10 µM),inactive: 0,inactive: 0,inactive: 0,inactive: 0,inactive: 0,inactive: 0,inactive: 0,inactive: 0,inactive: 0,inactive: 0,inactive: 0,inactive: 0,inactive: 0,inactive: 0,inactive: 0,inactive: 0,inactive: 0,inactive: 0,inactive: 0,inactive: 0
CC(C1CC1)n1cnc2c(NCc3cccc(C(F)(F)F)c3)nc(NCCN(C)C)nc21 (stereo not given) (10 µM),inactive: 0,inactive: 0,inactive: 0,inactive: 0,inactive: 0,inactive: 0,inactive: 0,inactive: 0,inactive: 0,inactive: 0,inactive: 0,inactive: 0,inactive: 0,inactive: 0,inactive: 0,inactive: 0,inactive: 0,inactive: 0,inactive: 0,inactive: 0
O=C(O)c1c[nH]c2cc(Cl)c(-c3ccc(C4(O)CCC4)cc3)cc12 (10 µM),inactive: 0,inactive: 0,inactive: 0,inactive: 0,inactive: 0,inactive: 0,inactive: 0,inactive: 0,inactive: 0,inactive: 0,inactive: 0,inactive: 0,inactive: 0,inactive: 0,inactive: 0,inactive: 0,inactive: 0,inactive: 0,inactive: 0,inactive: 0
O=[N+]([O-])c1ccc(-c2nc(-c3ccc(F)cc3)c(-c3ccncc3)[nH]2)cc1 (10 µM),inactive: 0,inactive: 0,inactive: 0,inactive: 0,inactive: 0,active: 1,inactive: 0,inactive: 0,inactive: 0,inactive: 0,inactive: 0,inactive: 0,inactive: 0,inactive: 0,inactive: 0,inactive: 0,inactive: 0,inactive: 0,inactive: 0,inactive: 0
CN1C(=O)[C@@H](NC(=O)c2cc(Cc3ccccc3)on2)COc2ccccc21 (10 µM),inactive: 0,inactive: 0,inactive: 0,inactive: 0,inactive: 0,inactive: 0,inactive: 0,inactive: 0,inactive: 0,inactive: 0,inactive: 0,inactive: 0,inactive: 0,inactive: 0,inactive: 0,inactive: 0,inactive: 0,inactive: 0,inactive: 0,inactive: 0
CC(C)n1c(CO)nc2c(F)cc(-c3nc(Nc4ccc(CN5CCNCC5)cn4)ncc3F)cc21 (10 µM),inactive: 0,active: 1,inactive: 0,inactive: 0,inactive: 0,inactive: 0,inactive: 0,inactive: 0,inactive: 0,inactive: 0,inactive: 0,inactive: 0,inactive: 0,inactive: 0,inactive: 0,inactive: 0,inactive: 0,inactive: 0,inactive: 0,inactive: 0
Cc1ccc(Nc2cc(N[C@@H]3CCCC[C@@H]3N)nnc2C(N)=O)nc1C (2 µM),inactive: 0,inactive: 0,inactive: 0,inactive: 0,inactive: 0,inactive: 0,inactive: 0,inactive: 0,inactive: 0,inactive: 0,inactive: 0,inactive: 0,inactive: 0,inactive: 0,inactive: 0,inactive: 0,inactive: 0,inactive: 0,inactive: 0,inactive: 0
Cc1cncc2cccc(S(=O)(=O)N3CCCNC[C@@H]3C)c12 [H-1152 (dihydrochloride)] (10 µM),inactive: 0,inactive: 0,inactive: 0,inactive: 0,inactive: 0,inactive: 0,inactive: 0,inactive: 0,inactive: 0,inactive: 0,inactive: 0,inactive: 0,inactive: 0,inactive: 0,inactive: 0,inactive: 0,inactive: 0,inactive: 0,inactive: 0,inactive: 0
Nc1[nH]nc2nnc(-c3c(-c4ccccc4)nn4ccccc34)cc12 (10 µM),inactive: 0,inactive: 0,inactive: 0,inactive: 0,inactive: 0,inactive: 0,inactive: 0,inactive: 0,inactive: 0,inactive: 0,inactive: 0,inactive: 0,inactive: 0,inactive: 0,inactive: 0,inactive: 0,inactive: 0,inactive: 0,inactive: 0,inactive: 0
O=C(NCc1ccn[nH]1)c1cc([C@@H]2CCNC[C@H]2COc2ccc3c(c2)OCO3)ccc1F [GRK2-IN-1 (hydrochloride)] (10 µM),inactive: 0,inactive: 0,inactive: 0,inactive: 0,inactive: 0,inactive: 0,inactive: 0,inactive: 0,inactive: 0,inactive: 0,inactive: 0,inactive: 0,inactive: 0,inactive: 0,inactive: 0,inactive: 0,inactive: 0,inactive: 0,inactive: 0,inactive: 0
Cc1nc2c(NCc3cccc(S(C)(=O)=O)c3)nccn2c1-c1ccc(O)c(F)c1 (10 µM),inactive: 0,inactive: 0,inactive: 0,inactive: 0,inactive: 0,inactive: 0,inactive: 0,inactive: 0,inactive: 0,inactive: 0,inactive: 0,inactive: 0,inactive: 0,inactive: 0,inactive: 0,inactive: 0,inactive: 0,inactive: 0,inactive: 0,inactive: 0
Cc1cc(N2CCOCC2)ccc1Nc1nc(NC2CCCCC2)c2[nH]cnc2n1 (10 µM),inactive: 0,inactive: 0,inactive: 0,inactive: 0,inactive: 0,inactive: 0,inactive: 0,inactive: 0,inactive: 0,inactive: 0,inactive: 0,inactive: 0,inactive: 0,inactive: 0,inactive: 0,inactive: 0,inactive: 0,inactive: 0,inactive: 0,inactive: 0

# Arranged by formula weight (rising): 3 of the compounds above.
Compound,kinase-Nluc reporter destabilization hit call (CDK7),kinase-Nluc reporter destabilization hit call (CDK9),kinase-Nluc reporter destabilization hit call (CHEK2),kinase-Nluc reporter destabilization hit call (CSF1R),kinase-Nluc reporter destabilization hit call (CSK),kinase-Nluc reporter destabilization hit call (CSNK1A1),kinase-Nluc reporter destabilization hit call (CSNK1D),kinase-Nluc reporter destabilization hit call (DDR1),kinase-Nluc reporter destabilization hit call (DYRK1B),kinase-Nluc reporter destabilization hit call (DYRK2),kinase-Nluc reporter destabilization hit call (EGFR),kinase-Nluc reporter destabilization hit call (EGFR_G719S),kinase-Nluc reporter destabilization hit call (EGFR_G719S_T790M),kinase-Nluc reporter destabilization hit call (EGFR_L718V),kinase-Nluc reporter destabilization hit call (EGFR_L858R),kinase-Nluc reporter destabilization hit call (EGFR_L861Q),kinase-Nluc reporter destabilization hit call (EGFR_T790M),kinase-Nluc reporter destabilization hit call (EPHA2),kinase-Nluc reporter destabilization hit call (ERBB3),kinase-Nluc reporter destabilization hit call [1]
O=C(O)c1c[nH]c2cc(Cl)c(-c3ccc(C4(O)CCC4)cc3)cc12 (10 µM),inactive: 0,inactive: 0,inactive: 0,inactive: 0,inactive: 0,inactive: 0,inactive: 0,inactive: 0,inactive: 0,inactive: 0,inactive: 0,inactive: 0,inactive: 0,inactive: 0,inactive: 0,inactive: 0,inactive: 0,inactive: 0,inactive: 0,inactive: 0
Cc1ccc(C2CC(=O)NC(SCC(=O)Nc3nccs3)=C2C#N)cc1 (stereo not given) [Necrostatin-34] (10 µM),inactive: 0,inactive: 0,inactive: 0,inactive: 0,inactive: 0,inactive: 0,inactive: 0,inactive: 0,inactive: 0,inactive: 0,inactive: 0,inactive: 0,inactive: 0,inactive: 0,inactive: 0,inactive: 0,inactive: 0,inactive: 0,inactive: 0,inactive: 0
Cc1cc(N2CCOCC2)ccc1Nc1nc(NC2CCCCC2)c2[nH]cnc2n1 (10 µM),inactive: 0,inactive: 0,inactive: 0,inactive: 0,inactive: 0,inactive: 0,inactive: 0,inactive: 0,inactive: 0,inactive: 0,inactive: 0,inactive: 0,inactive: 0,inactive: 0,inactive: 0,inactive: 0,inactive: 0,inactive: 0,inactive: 0,inactive: 0
